Measurements taken from PMC9731409.

Tests used:
[1] = target: FLAG-HN (N-terminally FLAG-tagged mumps virus hemagglutinin-neuraminidase) (mumps virus); assay: co-IP
[2] = target: F-FLAG (C-terminally FLAG-tagged mumps virus fusion protein) (mumps virus); assay: co-IP; 293T cells co-expressing FLAG-tagged F or HN and an HA-tagged host protein; immunoprecipitated with anti-FLAG or anti-HA antibody; lysis in 20 mM Tris-HCl pH 7.5, 135 mM NaCl, 1% Triton X-100; protein G beads, immunoblotting (Fig 4A, S3 Fig)

Row | Binder | binding [1] | binding [2]
1 | HA-BET1 (protein, UniProt O15155 1-118) MRRAGLGEGVPPGNYGNYGYANSGYSACEEENERLTESLRSKVTAIKSLSIEIGHEVKTQNKLLAEMDSQFDSTTGFLGKTMGKLKILSRGSQTKLLCYMMLFSLFVFFIIYWIIKLR | no binding | binds
2 | HA-USE1 (Unconventional SNARE in ER 1) (protein, UniProt Q9NZ43 1-259) MAASRLELNLVRLLSRCEAMAAEKRDPDEWRLEKYVGALEDMLQALKVHASKPASEVINEYSWKVDFLKGMLQAEKLTSSSEKALANQFLAPGRVPTTARERVPATKTVHLQSRARYTSEMRSELLGTDSAEPEMDVRKRTGVAGSQPVSEKQLAAELDLVLQRHQNLQEKLAEEMLGLARSLKTNTLAAQSVIKKDNQTLSHSLKMADQNLEKLKTESERLEQHTQKSVNWLLWAMLIIVCFIFISMILFIRIMPKLK | no binding | binds

Results are given in words; binding and its absence hold for the method and conditions named. Binding seen in cells or lysates may run through a third protein. For some of these results: Binding can be weak; no strength is given. Sequences can lack the tags named with a protein.
